Reference: PubChem BioAssay AID493014 (National Center for Advancing Translational Sciences (NCATS), 2011)
The other results are listed elsewhere or left out. These are further read-outs of the screen, such as a control signal, another cell line or another target. No call is given for them. The list favours compounds with an active or inconclusive main result. Words in brackets tell the shape of the fitted curve; partial curves, single points and poor fits give uncertain potencies.

Test: qHTS Assay to Find Inhibitors of Chronic Active B-Cell Receptor Signaling
Conditions: ABC-DLBCL IkBa-CBG/CBR reporter, luminescence ratio (green luciferase fused to IkBa over red control in TMD8 lymphoma cells), 4 h
In short: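 TMD8 ABC-DLBCL cells carrying doxycycline-inducible green luciferase fused to IkappaBalpha plus unfused red luciferase were exposed to compounds (up to 46 uM) for 4 hrs at 37C. Activity came from the overlap-corrected green/red luminescence ratio.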

[1] = measured here: CBR red luminescence, cell number

SMILES | AC50 [1] | AC50 (measured here: IkBa-CBG green luminescence)
CCc1nn(-c2ccccc2)c(N)c1-c1ccc(OC)c(OC)c1 | 23.1 µM [rising, single point] | 
CC(=O)c1c(C)[nH]c(C(=O)N2CCN(C(=O)c3ccco3)CC2)c1C | 16.4 µM [rising, single point] | 
CCOC(=O)c1cc(-c2cccnc2)nn1-c1ccccn1 | 15.8 µM [rising, partial curve, poor fit] | 
Nc1nc(-c2cc3ccccc3o2)cs1 | 0.891 µM [rising, full curve, poor fit] | 35.5 µM [rising, partial curve, poor fit]
O=C1C2C3C=CC(C4CC34)C2C(=O)N1/N=C/c1ccc(-c2ccccc2[N+](=O)[O-])o1 (centres undefined) | 23.1 µM [rising, single point] | 
O=C(NC(=S)N1CCN(C/C=C/c2ccccc2)CC1)c1ccco1 | 11.2 µM [rising, single point] | 
O=C(NCc1ccco1)c1cnccn1 | 10 µM [falling, partial curve] | 
CCCOc1ccc(C(=O)NCC(c2cccs2)N(C)C)cc1 (centres undefined) | 23.1 µM [rising, single point] | 
Cc1cc(NC(=O)CSCC(=O)OCC(=O)Nc2cc(C)c(C)cc2[N+](=O)[O-])no1 | 18.4 µM [rising, single point] | 
O=C(Oc1ccccc1C(=O)Nc1ccccc1)c1ccc(Br)c([N+](=O)[O-])c1 | 23.1 µM [falling, single point] | 
CCCCNC(=O)Cc1ccc(Br)cc1 | 7.08 µM [rising, partial curve, poor fit] | 
O=S(=O)(c1cccc(NC(=S)N2CCN(c3ccc(F)cc3)CC2)c1)C(F)F | 18.4 µM [falling, partial curve] | 
Cc1ccc2nc(C3CCN(C(=O)c4ccco4)CC3)[nH]c2c1 | 3.55 µM [rising, partial curve, poor fit] | 
CCn1cc(S(=O)(=O)CC(=O)Nc2cc(C)on2)c2ccccc21 | 12.6 µM [falling, partial curve] | 
O=C(Nc1cccc([N+](=O)[O-])c1)c1ccc2snnc2c1 | 5.62 µM [rising, single point] | 
Cc1cc(C(c2nnnn2Cc2ccccc2)N2CCOCC2)c(C)n1-c1ccc2c(c1)OCO2 (centres undefined) | 22.4 µM [falling, single point] | 
CC12CCC(=O)N1C(C(=O)Nc1nc3c(F)cc(F)cc3s1)CS2 (centres undefined) | 0.794 µM [falling, full curve, poor fit] | 
COc1cccc(CNC(=O)CCN2C(=S)NC(C)(C)CC2C)c1 (centres undefined) | 1 µM [falling, full curve] | 

Another view of part of the listing above.
SMILES,AC50 [1],AC50 (measured here: IkBa-CBG green luminescence)
O=C(NC(=S)N1CCN(C/C=C/c2ccccc2)CC1)c1ccco1,"11.2 µM [rising, single point]",
O=C(NCc1ccco1)c1cnccn1,"10 µM [falling, partial curve]",
